Assay results: US12564638B2 (SHANGHAITECH UNIVERSITY, priority 2019, dated 2026)
Some of these results come from one statement about several compounds together.

By UniProt entry, the sequences of proteins in these tests, tags left out. Residues count along the entry.
UniProt P00533, 25-1210 T790M/L858R: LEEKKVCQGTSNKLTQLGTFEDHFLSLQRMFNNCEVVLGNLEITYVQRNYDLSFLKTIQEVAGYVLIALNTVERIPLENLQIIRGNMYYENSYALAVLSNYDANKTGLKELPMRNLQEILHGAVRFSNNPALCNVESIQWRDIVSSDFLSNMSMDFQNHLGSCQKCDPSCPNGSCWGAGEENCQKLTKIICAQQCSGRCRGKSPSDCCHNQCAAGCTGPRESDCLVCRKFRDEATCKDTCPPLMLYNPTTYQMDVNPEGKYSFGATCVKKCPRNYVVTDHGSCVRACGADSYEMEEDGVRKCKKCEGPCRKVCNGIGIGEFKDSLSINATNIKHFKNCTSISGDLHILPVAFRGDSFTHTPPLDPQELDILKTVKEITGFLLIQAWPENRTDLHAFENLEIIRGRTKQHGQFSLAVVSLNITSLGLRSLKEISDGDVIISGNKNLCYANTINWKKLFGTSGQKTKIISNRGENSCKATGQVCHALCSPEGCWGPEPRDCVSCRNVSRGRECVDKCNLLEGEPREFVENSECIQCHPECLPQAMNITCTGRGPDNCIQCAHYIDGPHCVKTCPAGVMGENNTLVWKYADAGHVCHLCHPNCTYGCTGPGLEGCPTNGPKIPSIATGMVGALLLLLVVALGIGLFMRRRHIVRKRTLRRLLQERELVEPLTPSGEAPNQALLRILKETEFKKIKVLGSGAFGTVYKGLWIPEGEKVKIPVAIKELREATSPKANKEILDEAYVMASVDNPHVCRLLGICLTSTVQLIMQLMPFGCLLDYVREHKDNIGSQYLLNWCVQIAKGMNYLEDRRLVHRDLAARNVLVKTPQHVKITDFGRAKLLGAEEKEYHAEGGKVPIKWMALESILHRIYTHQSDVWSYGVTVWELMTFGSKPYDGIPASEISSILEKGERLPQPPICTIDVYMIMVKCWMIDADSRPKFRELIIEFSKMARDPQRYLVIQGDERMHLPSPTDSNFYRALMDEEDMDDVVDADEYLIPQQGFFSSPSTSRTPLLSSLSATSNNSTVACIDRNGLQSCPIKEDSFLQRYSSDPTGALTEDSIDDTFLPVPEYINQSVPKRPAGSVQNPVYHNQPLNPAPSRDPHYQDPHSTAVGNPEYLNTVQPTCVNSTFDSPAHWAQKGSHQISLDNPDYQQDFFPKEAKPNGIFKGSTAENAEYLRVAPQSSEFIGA

Target: T1, EGFR (L858R+T790M) in H1975 cells (Homo sapiens, UniProt P00533, L858R/T790M)
T1 construct: determined in H1975 cells with the EGFR L858R+T790M mutation; endogenous in cells; host or cells: H1975
Assay: Western blot of EGFR protein level (degradation), H1975 cells
Assay type: cell-based
Conditions: 16 hours
Method: Cancer cells were planted in 12-well-plate at the density of 0.15 million cells per well with 1 mL RPMI1640 completed culture medium. Compounds with different concentrations (DMSO as a solution system, and 1 μL of compounds of different concentrations was added to 1 mL of the cell culture medium) were added to the cells planted one day before. 16 hours after treated, the medium was discarded and the cells were washed with precooled PBS. The cells were placed on ice and treated with RIPA protein lysis buffer containing halt protease and phosphatase inhibitor. After centrifugation at 10000 rpm at 4° C. for 10 minutes, the supernatant was collected. The same amount of proteins were added into 4×SDS loading buffer and heated at 95° C. for 5 minutes for denaturation, and the samples were stored at −20° C. after denaturation, or directly conducted protein electrophoresis. The 4-20% gradient preformed Electrophoretic gels were purchased from Kingsy. […]
The degradation efficacy of the dacomitinib-based compounds on EGFR was determined in HCC827 and H1975 cell lines, which harboring EGFR Exon 19del and EGFR L858R+T790M mutations respectively. […]
The degradation efficacy of the canertinib-based compounds on EGFR was determined in H1975 cells with the EGFR L858R+T790M mutation. […]

## C=CC(=O)Nc1cc2c(Nc3ccc(F)c(Cl)c3)ncnc2cc1OCCCN1CCN(CCCCCCNc2cccc3c2C(=O)N(C2CCC(=O)NC2=O)C3=O)CC1 (stereo not shown) [SIAIS262182, N-(4-((3-chloro-4-fluorophenyl)amino)-7-(3-(4-(6-((2-(2,6-dioxopiperidin-3-yl)-1,3-dioxoisoindolin-4-yl)amino)hexyl)piperazin-1-yl)propoxy)quinazolin-6-yl)acrylamide]
  DC50: < 10 nM
